From PubChem BioAssay record AID504749 (NCATS, 2011).

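A panel of P. falciparum strains inside erythrocytes is exposed to compounds for three days, then a DNA-binding dye reports the amount of parasite DNA.
Each compound was titrated across a series from about 0.000037 to 29 µM.
The number is the fitted AC50, the concentration giving a half-maximal change in signal; a lower value means higher potency, whether the curve shows a decrease or an increase.
Calls follow the curve class and fit quality: every row here is inconclusive, covering signal-raising curves and weak, poorly fitted, partial or highest-dose-only inhibition curves.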

Values are in nM.
Every entry below has the call inconclusive.
Only part of the assay is shown, chiefly results filed as inconclusive.
Potencies fitted to partial, single-point or poorly fitting curves are rough.
An entry listed twice with the same setting is a separate test.

| compound | setting | fitted potency (nM) | remark |
|---|---|---|---|
| `CCN(CC)CCC(=O)N1c2ccccc2Sc2ccc(Cl)cc21` | CP286 | 3981 | inhibitor, partial curve |
| `CCN(CC)CCC(=O)N1c2ccccc2Sc2ccc(Cl)cc21` | CP291 | 7569 | inhibitor, partial curve |
| `CCN(CC)CCC(=O)N1c2ccccc2Sc2ccc(Cl)cc21` | CP269 | 6746 | inhibitor, partial curve |
| `CCN(CC)CCC(=O)N1c2ccccc2Sc2ccc(Cl)cc21` | CP315 | 15101 | inhibitor, single point |
| `CCN(CC)CCC(=O)N1c2ccccc2Sc2ccc(Cl)cc21` | CP265 | 4467 | inhibitor, partial curve |
| `CCN(CC)CCC(=O)N1c2ccccc2Sc2ccc(Cl)cc21` | TAB165 | 5012 | inhibitor, partial curve |
| `CCN(CC)CCC(=O)N1c2ccccc2Sc2ccc(Cl)cc21` | FAB9 | 11220 | inhibitor, single point |
| `CCN(CC)CCC(=O)N1c2ccccc2Sc2ccc(Cl)cc21` | CP297 | 9528 | inhibitor, partial curve |
| `CCN(CC)CCC(=O)N1c2ccccc2Sc2ccc(Cl)cc21` | CP262 | 16944 | inhibitor, single point |
| `CCN(CC)CCC(=O)N1c2ccccc2Sc2ccc(Cl)cc21` | CP252 | 11220 | inhibitor, partial curve |
| `CCN(CC)CCC(=O)N1c2ccccc2Sc2ccc(Cl)cc21` | PC26 | 8492 | inhibitor, partial curve |
| `CCN(CC)CCC(=O)N1c2ccccc2Sc2ccc(Cl)cc21` | CP215 | 11995 | inhibitor, partial curve, poor fit |
| `CCN(CC)CCC(=O)N1c2ccccc2Sc2ccc(Cl)cc21` | CP185 | 3981 | inhibitor, partial curve |
| `CCN(CC)CCC(=O)N1c2ccccc2Sc2ccc(Cl)cc21` | CP266 | 10690 | inhibitor, single point |
| `CCN(CC)CCC(=O)N1c2ccccc2Sc2ccc(Cl)cc21` | DFO2036 | 7080 | inhibitor, partial curve, poor fit |
| `CCN(CC)CCC(=O)N1c2ccccc2Sc2ccc(Cl)cc21` | AA1029 | 4467 | inhibitor, partial curve |
| `CCN(CC)CCC(=O)N1c2ccccc2Sc2ccc(Cl)cc21` | HB3 | 6310 | inhibitor, partial curve |
| `CCN(CC)CCC(=O)N1c2ccccc2Sc2ccc(Cl)cc21` | CP237 | 3981 | inhibitor, partial curve |
| `CCN(CC)CCC(=O)N1c2ccccc2Sc2ccc(Cl)cc21` | CP217 | 7080 | inhibitor, partial curve |
| `CCN(CC)CCC(=O)N1c2ccccc2Sc2ccc(Cl)cc21` | SC27B | 7943 | inhibitor, partial curve |
| `CNC1=CN(O)C(c2ccccc2)=c2cc(Cl)ccc2=N1` | CP194 | 11995 | inhibitor, single point |
| `CNC1=CN(O)C(c2ccccc2)=c2cc(Cl)ccc2=N1` | CP305 | 9528 | inhibitor, partial curve, poor fit |
| `CNC1=CN(O)C(c2ccccc2)=c2cc(Cl)ccc2=N1` | AA1029 | 17782 | inhibitor, single point |
| `CNC1=CN(O)C(c2ccccc2)=c2cc(Cl)ccc2=N1` | CP265 | 17782 | inhibitor, single point |
| `CNC1=CN(O)C(c2ccccc2)=c2cc(Cl)ccc2=N1` | CP191 | 11220 | inhibitor, single point |
| `CNC1=CN(O)C(c2ccccc2)=c2cc(Cl)ccc2=N1` | PAD | 8912 | inhibitor, partial curve |
| `CNC1=CN(O)C(c2ccccc2)=c2cc(Cl)ccc2=N1` | CP192 | 16944 | inhibitor, single point |
| `CNC1=CN(O)C(c2ccccc2)=c2cc(Cl)ccc2=N1` | TAB165 | 17782 | inhibitor, single point |
| `CNC1=CN(O)C(c2ccccc2)=c2cc(Cl)ccc2=N1` | FAB9 | 12589 | inhibitor, single point |
| `CNC1=CN(O)C(c2ccccc2)=c2cc(Cl)ccc2=N1` | CP237 | 11220 | inhibitor, single point |
| `CNC1=CN(O)C(c2ccccc2)=c2cc(Cl)ccc2=N1` | ATS189 | 11220 | inhibitor, single point |
| `CNC1=CN(O)C(c2ccccc2)=c2cc(Cl)ccc2=N1` | CP268 | 9528 | inhibitor, single point |
| `CNC1=CN(O)C(c2ccccc2)=c2cc(Cl)ccc2=N1` | DIV17 | 16944 | inhibitor, partial curve |
| `CNC1=CN(O)C(c2ccccc2)=c2cc(Cl)ccc2=N1` | CP252 | 17782 | inhibitor, single point |
| `CNC1=CN(O)C(c2ccccc2)=c2cc(Cl)ccc2=N1` | CP269 | 16944 | inhibitor, partial curve, poor fit |
| `CNC1=CN(O)C(c2ccccc2)=c2cc(Cl)ccc2=N1` | ATS95 | 17782 | inhibitor, single point |
| `CNC1=CN(O)C(c2ccccc2)=c2cc(Cl)ccc2=N1` | DIV14 | 11995 | inhibitor, partial curve |
| `CNC1=CN(O)C(c2ccccc2)=c2cc(Cl)ccc2=N1` | P93_24 | 12589 | inhibitor, single point |
| `CNC1=CN(O)C(c2ccccc2)=c2cc(Cl)ccc2=N1` | 3D7 | 14125 | inhibitor, single point |
| `CNC1=CN(O)C(c2ccccc2)=c2cc(Cl)ccc2=N1` | CP247 | 17782 | inhibitor, single point |
| `CNC1=CN(O)C(c2ccccc2)=c2cc(Cl)ccc2=N1` | P94_40 | 8912 | inhibitor, single point |
| `CNC1=CN(O)C(c2ccccc2)=c2cc(Cl)ccc2=N1` | P93_24 | 4467 | inhibitor, partial curve |
| `CNC1=CN(O)C(c2ccccc2)=c2cc(Cl)ccc2=N1` | CP211 | 19011 | inhibitor, single point |
| `CNC1=CN(O)C(c2ccccc2)=c2cc(Cl)ccc2=N1` | ECU | 7080 | inhibitor, partial curve |
| `CNC1=CN(O)C(c2ccccc2)=c2cc(Cl)ccc2=N1` | CP217 | 7080 | inhibitor, partial curve |
| `CNC1=CN(O)C(c2ccccc2)=c2cc(Cl)ccc2=N1` | CP297 | 19011 | inhibitor, single point |
| `CNC1=CN(O)C(c2ccccc2)=c2cc(Cl)ccc2=N1` | PC26 | 15101 | inhibitor, single point |
| `CNC1=CN(O)C(c2ccccc2)=c2cc(Cl)ccc2=N1` | TAB113 | 15848 | inhibitor, single point |
| `CNC1=CN(O)C(c2ccccc2)=c2cc(Cl)ccc2=N1` | CP217 | 10000 | inhibitor, single point |
| `CNC1=CN(O)C(c2ccccc2)=c2cc(Cl)ccc2=N1` | SC27B | 11220 | inhibitor, single point |

3 of the entries, repeated:

For CNC1=CN(O)C(c2ccccc2)=c2cc(Cl)ccc2=N1 [CP217] the result was fitted potency 10000 nM (inhibitor, single point).
For CNC1=CN(O)C(c2ccccc2)=c2cc(Cl)ccc2=N1 [CP265] the result was fitted potency 17782 nM (inhibitor, single point).
For CCN(CC)CCC(=O)N1c2ccccc2Sc2ccc(Cl)cc21 [CP286] the result was fitted potency 3981 nM (inhibitor, partial curve).